These results are taken from article PMC7773993.

By UniProt entry, the sequences of proteins in these tests, tags left out. Where a name states a change or a piece, a line headed by the entry shows the natural chain unless it says otherwise.
UniProt Q4WMT1: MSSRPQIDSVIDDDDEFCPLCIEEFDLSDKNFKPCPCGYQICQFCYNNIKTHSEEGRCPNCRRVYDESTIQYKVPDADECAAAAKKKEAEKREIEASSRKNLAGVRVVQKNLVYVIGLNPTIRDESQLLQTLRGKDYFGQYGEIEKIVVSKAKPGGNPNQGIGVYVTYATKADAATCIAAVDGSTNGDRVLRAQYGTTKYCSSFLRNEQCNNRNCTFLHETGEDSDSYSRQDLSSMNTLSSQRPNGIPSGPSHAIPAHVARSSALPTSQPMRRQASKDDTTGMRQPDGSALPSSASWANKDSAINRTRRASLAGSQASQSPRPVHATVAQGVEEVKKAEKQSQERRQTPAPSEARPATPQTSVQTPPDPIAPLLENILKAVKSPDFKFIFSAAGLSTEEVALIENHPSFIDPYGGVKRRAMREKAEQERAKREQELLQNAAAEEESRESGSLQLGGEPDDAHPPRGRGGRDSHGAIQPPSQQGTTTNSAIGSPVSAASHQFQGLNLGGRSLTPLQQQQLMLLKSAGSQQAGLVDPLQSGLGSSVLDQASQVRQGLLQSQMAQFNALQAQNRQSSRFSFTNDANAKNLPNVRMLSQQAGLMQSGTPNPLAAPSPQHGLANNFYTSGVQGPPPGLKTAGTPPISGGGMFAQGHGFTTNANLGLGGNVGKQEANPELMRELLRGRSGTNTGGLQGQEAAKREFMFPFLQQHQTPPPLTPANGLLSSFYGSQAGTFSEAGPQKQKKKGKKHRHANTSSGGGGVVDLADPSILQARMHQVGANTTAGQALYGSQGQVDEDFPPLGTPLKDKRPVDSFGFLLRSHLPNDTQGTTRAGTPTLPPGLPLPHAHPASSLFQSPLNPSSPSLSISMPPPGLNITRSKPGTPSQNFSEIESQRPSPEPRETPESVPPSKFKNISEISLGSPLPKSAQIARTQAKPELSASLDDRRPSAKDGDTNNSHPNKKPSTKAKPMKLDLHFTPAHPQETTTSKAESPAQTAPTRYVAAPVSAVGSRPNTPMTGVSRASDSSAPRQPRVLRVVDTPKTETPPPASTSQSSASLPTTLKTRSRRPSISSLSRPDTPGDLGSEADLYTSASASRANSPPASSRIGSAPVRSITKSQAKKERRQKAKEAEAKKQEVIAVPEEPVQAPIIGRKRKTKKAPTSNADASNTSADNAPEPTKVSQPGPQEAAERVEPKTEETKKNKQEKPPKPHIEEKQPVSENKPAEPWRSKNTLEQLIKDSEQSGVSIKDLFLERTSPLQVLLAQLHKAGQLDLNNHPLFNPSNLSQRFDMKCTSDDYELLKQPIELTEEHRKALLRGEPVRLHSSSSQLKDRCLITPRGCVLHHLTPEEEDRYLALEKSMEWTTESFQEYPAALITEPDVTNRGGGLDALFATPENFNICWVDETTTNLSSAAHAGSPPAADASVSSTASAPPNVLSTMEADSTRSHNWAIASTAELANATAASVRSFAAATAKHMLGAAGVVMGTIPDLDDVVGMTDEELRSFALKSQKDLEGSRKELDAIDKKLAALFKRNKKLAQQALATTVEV

Read-outs that look alike come from different tables or passages of the source. These are yes or no findings as the source states them, for the method shown. Binding seen in cells or lysates may run through a third protein. A yes stands for co-enrichment or nearness to the bait. Other partners may have been found. For part of these data: No binding means not detected with the bait.

Assay [1] deals with T1, PkaC1, major protein kinase A (PKA) catalytic subunit of Aspergillus fumigatus (Aspergillus fumigatus) (UniProt Q8J129).
T1 sequence: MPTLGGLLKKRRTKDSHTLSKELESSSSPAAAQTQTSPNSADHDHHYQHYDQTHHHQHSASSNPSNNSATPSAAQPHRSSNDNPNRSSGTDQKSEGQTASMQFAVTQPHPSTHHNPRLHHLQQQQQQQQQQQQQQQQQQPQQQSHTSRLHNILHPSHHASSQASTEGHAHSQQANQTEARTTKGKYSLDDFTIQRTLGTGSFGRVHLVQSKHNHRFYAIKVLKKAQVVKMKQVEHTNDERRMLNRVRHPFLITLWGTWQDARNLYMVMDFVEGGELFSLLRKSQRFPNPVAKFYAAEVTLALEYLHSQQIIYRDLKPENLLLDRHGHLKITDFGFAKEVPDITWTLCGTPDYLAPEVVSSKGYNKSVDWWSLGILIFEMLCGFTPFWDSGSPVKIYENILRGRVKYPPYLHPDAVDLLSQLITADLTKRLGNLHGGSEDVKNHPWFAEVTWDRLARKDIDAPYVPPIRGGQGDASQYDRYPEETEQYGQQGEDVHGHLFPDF
Kind of assay: affinity purification with mass spectrometry; PkaC1 interactome: proteins coimmunoprecipitated with PkaC1 in an affinity purification procedure (GFP-Trap) from A. fumigatus crude extracts, identified by LC-MS/MS.

For assay [2], the target named is T1, PkaC1, major protein kinase A (PKA) catalytic subunit of Aspergillus fumigatus (Aspergillus fumigatus). Described as above. The source holds these as a separate data set.

Take “HapB, CCAAT-binding transcription factor subunit of Aspergillus fumigatus”: in assay [1], the binding result is “no binding”.

On to “Not1, putative member of the CCR4-NOT complex of Aspergillus fumigatus”, for which the binding result in assay [1] is reported as “binds”.

“Not2, putative member of the CCR4-NOT complex of Aspergillus fumigatus”: the binding entry in assay [1] is “binds”.

Regarding “Not3, putative member of the CCR4-NOT complex of Aspergillus fumigatus”, the binding result in assay [1] is on record as “binds”.

As to “Not4, CCR4-NOT core complex subunit (ubiquitin ligase) of Aspergillus fumigatus (from UniProt Q4WMT1)”, the binding entry in assay [1] is on record as “binds”.

B1: Atg24, autophagy-associated protein (vacuolar targeting protein; sorting nexin) of Aspergillus fumigatus (protein, UniProt Q4WQI6 1-497)
chain: MDQHDDFDSVSWRQDPESDISRPTTSGTDADESLEYNRDTNGKRRMSSVHEDPPQAGPLADAVDLAGIGDGVLECRVDSPLKENDGTKDAYISYLVTTHTDFKSFQKPDFAVRRRFTDFYFLYKTLYREYPACAVPPLPEKHKMEYVTGDRFGPEFTSRRAWSLHRFLKRLTLHPVLRRAPLLAIFLESPDWNAHMRLHSTRTSTGNSDGSGTGIFDNFTDTFVNAFTKVHKPDRRFIEVKEKADKLDEDLNHVEKIVARVARRESDLEADYNDLATQFRKLVPLEPDVEVPLQIFAASVEETARGFKMLKDHTDQNYLGSLRDMEAYIVSVKALLKTREQKQLDFEALVDYRNKAVAERDSLAANPSSYYASNPLTSSPASFIRSKMEDMRGVDHEQSRRERVRKLELRIDELTREVESAKTTSEMFDEEVVREVADFERIKAVEFRDTLGALAEKHIDFFQGAINTWERFVAEMEGDLDNDPEMSEHGRGGGVAA
Turning to B1, the binding entry in assay [2] is “binds”.
